Measured values reported in paper PMC7394235.
No constants are given. Whether binding was seen depends on the method and setting. For some of these results: In cells and extracts the contact can be indirect. Some results given as binding are weak or reduced against the parent protein; the word gives no strength. Where a sequence is shown, tags or fusion partners need not be part of it.

T1: MLO10-CT fragment P5 (536-569 aa, BD fusion) (Arabidopsis thaliana) (UniProt Q9FKY5)
T1 sequence: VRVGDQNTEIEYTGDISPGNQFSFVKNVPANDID

T2: MLO10-CT-BD (C-terminal of AtMLO10, 434-569 aa) (Arabidopsis thaliana) (UniProt Q9FKY5)
T2 sequence: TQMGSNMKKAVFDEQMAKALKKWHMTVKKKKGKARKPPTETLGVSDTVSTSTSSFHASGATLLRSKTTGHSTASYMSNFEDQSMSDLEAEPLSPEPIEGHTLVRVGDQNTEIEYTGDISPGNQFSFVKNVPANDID

T3: MLO10-nVenus (Arabidopsis thaliana) (UniProt Q9FKY5)
T3 sequence: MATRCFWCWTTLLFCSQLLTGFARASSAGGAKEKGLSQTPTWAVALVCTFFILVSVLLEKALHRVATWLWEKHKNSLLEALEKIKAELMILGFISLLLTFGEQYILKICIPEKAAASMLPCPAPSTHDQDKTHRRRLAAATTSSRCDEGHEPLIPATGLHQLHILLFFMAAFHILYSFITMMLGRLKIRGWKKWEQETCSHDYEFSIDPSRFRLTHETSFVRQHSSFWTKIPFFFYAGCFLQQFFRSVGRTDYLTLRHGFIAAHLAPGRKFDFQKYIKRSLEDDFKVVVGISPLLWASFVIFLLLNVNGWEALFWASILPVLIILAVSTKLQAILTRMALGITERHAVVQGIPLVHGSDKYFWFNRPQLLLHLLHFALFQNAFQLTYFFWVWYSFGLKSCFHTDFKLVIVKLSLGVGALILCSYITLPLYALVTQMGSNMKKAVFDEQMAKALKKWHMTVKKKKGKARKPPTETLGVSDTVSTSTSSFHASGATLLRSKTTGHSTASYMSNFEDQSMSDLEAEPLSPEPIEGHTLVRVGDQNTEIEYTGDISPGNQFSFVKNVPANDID


Key:
[1] = target: T1, MLO10-CT fragment P5 (536-569 aa, BD fusion) (Arabidopsis thaliana); test: two-hybrid; MLO10-CT or its fragments P1-P5 as BD fusion, CaMs/CMLs as AD fusion (pGADT7), co-transformed into yeast AH109; selection on SD lacking Leu, Trp, His with 1.5 mM 3-AT; X-Gal filter assay
[2] = target: T2, MLO10-CT-BD (C-terminal of AtMLO10, 434-569 aa) (Arabidopsis thaliana); test: as above
[3] = target: T3, MLO10-nVenus (Arabidopsis thaliana); test: split reporter; BiFC: MLO10-nVenus and CML9-cCFP co-expressed in Arabidopsis mesophyll protoplasts, 16 h at 23°C in the dark, confocal microscopy

binding [1] | binding [2] | binding [3] | Binder
binds | binds |  | CML9-AD (AtCML9 in pGADT7) (protein, UniProt Q9S744 1-151) MADAFTDEQIQEFYEAFCLIDKDSDGFITKEKLTKVMKSMGKNPKAEQLQQMMSDVDIFGNGGITFDDFLYIMAQNTSQESASDELIEVFRVFDRDGDGLISQLELGEGMKDMGMKITAEEAEHMVREADLDGDGFLSFHEFSKMMIAASY
 |  | binds | CML9-cCFP (protein, UniProt Q9S744 1-151) MADAFTDEQIQEFYEAFCLIDKDSDGFITKEKLTKVMKSMGKNPKAEQLQQMMSDVDIFGNGGITFDDFLYIMAQNTSQESASDELIEVFRVFDRDGDGLISQLELGEGMKDMGMKITAEEAEHMVREADLDGDGFLSFHEFSKMMIAASY
 | no binding |  | CML10 (AD fusion in pGADT7) (protein, UniProt P30187 1-191) MANKFTRQQISEFREQFSVYDKNGDGHITTEEFGAVMRSLGLNLTQAELQEEINDSDLDGDGTINFTEFLCAMAKDTYSEKDLKKDFRLFDIDKNGFISAAEMRYVRTILRWKQTDEEIDEIIKAADVDGDGQINYREFARLMMAKNQGHDTKYDTTGGTLERDLAAGVAKNIIAAPMTDFIKNLFEALFS
